Results taken from article PMC4424835.
Results are given in words; binding and its absence hold for the method and conditions named. In cells and extracts the contact can be indirect.

Chains of the proteins cited; added tags and fusions are not shown.
UniProt P08913: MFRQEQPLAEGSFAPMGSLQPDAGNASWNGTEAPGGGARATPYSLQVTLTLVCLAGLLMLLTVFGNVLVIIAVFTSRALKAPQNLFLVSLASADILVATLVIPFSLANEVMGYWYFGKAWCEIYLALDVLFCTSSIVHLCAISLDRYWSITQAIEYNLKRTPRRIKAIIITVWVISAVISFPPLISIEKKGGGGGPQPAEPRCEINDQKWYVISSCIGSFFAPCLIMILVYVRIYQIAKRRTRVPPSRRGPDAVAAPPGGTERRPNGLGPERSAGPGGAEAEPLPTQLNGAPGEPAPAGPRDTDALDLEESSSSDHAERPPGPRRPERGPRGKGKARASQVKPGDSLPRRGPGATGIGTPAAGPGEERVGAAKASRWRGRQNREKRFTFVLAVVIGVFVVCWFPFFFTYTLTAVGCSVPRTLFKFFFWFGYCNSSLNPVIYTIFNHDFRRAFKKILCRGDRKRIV
UniProt P28223: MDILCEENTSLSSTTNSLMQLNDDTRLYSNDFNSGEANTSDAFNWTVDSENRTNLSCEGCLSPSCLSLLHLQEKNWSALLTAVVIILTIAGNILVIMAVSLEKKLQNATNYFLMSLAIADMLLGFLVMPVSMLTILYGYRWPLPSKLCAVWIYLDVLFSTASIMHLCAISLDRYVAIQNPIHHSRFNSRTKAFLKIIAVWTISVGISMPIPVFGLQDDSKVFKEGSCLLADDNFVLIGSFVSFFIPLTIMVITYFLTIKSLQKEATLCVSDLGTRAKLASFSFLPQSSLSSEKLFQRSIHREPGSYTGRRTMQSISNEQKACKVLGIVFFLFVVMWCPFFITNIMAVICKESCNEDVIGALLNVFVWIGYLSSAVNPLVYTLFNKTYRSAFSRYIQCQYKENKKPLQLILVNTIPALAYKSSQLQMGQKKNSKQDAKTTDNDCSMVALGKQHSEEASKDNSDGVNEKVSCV
UniProt P08173: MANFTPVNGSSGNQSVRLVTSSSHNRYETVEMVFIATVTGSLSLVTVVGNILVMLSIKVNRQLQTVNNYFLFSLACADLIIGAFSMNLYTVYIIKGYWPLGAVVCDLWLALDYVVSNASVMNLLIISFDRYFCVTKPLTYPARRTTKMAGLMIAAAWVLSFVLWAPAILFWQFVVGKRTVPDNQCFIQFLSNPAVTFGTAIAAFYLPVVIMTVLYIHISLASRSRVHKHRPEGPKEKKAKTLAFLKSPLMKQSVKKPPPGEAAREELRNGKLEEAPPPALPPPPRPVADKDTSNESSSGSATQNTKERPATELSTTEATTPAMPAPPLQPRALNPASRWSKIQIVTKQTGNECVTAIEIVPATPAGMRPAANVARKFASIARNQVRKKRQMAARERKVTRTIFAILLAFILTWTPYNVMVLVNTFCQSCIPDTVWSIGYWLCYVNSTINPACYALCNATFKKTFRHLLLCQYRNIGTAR

Biological target: β2 adrenergic receptor (UniProt P07550)
Test: FRET or BRET; BRET in living Flp-In T-REx HEK 293 cells; acceptor β2AR-V induced with 0-0.1 μg/ml tetracycline (~75 to ~3,000 μm^-2), Rluc8 donor transiently transfected for 12-48 h at several expression levels; net BRET versus acceptor expression; coelenterazine h 5 μM; room temperature (~25 °C)

Substance	binding
α2A adrenergic receptor fused to Rluc8 (from UniProt P08913 1-465)	no binding (tested: ~3,000 μm^−2 (highest β2AR-V density))
5HT2A serotonin receptor fused to Rluc8 (from UniProt P28223 1-471)	no binding (tested: ~3,000 μm^−2 (highest β2AR-V density))
M4 muscarinic acetylcholine receptor fused to Rluc8 (from UniProt P08173 1-479)	no binding (tested: ~3,000 μm^−2 (highest β2AR-V density))
